Measured values reported in US6417174B1, “Inhibitors of β-lactamases and uses therefor” (Northwestern University, priority 1997, dated 2002).
For at least one compound, name, drawing or mass did not settle the structure.

The chains behind the UniProt entries cited, without tags or fusion partners. Residues count along the entry.
UniProt P00811, 20-377: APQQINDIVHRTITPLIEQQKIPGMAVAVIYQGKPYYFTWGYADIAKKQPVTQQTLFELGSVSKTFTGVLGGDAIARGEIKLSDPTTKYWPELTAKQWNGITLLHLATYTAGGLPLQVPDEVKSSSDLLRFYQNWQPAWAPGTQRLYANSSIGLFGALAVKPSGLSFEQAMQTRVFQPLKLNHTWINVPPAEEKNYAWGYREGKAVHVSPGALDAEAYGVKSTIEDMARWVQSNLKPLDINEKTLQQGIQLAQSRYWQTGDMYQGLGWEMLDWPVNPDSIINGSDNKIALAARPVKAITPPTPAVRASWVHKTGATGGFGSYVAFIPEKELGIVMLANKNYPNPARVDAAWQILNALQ

Target: AmpC β-lactamase from E. coli (Escherichia coli, UniProt P00811)
Type: biochemical

Structure (SMILES): CCCCB(O)O [BUTB, Butylboronic acid]
- inhibition of AmpC (in words): no measurable inhibition
